Laboratory results taken from article PMC7237485.
No constants are given. Whether binding was seen depends on the method and setting. In cells and extracts the contact can be indirect. Binding can be weak; no strength is given.

By UniProt entry, the sequences of proteins in these tests, tags left out. Where a name states a change or a piece, a line headed by the entry shows the natural chain unless it says otherwise.
UniProt Q969H0: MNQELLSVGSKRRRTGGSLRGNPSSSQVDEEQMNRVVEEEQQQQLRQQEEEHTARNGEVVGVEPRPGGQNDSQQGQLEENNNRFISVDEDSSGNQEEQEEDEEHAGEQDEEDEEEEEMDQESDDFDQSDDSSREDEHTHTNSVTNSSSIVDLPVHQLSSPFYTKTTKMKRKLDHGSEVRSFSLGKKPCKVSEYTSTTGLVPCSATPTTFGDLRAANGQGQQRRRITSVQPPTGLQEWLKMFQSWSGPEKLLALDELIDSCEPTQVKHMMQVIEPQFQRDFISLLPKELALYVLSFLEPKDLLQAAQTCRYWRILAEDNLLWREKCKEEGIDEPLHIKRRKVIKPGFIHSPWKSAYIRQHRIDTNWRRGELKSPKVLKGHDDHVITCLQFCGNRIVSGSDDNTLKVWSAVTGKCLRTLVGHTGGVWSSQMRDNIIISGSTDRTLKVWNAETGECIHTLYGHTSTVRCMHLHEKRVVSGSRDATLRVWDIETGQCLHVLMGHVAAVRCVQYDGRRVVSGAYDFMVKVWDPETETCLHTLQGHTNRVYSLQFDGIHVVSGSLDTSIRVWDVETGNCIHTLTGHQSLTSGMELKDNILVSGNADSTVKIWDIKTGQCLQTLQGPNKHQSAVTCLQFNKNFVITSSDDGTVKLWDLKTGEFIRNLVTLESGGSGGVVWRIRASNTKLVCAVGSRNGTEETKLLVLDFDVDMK
UniProt P01106: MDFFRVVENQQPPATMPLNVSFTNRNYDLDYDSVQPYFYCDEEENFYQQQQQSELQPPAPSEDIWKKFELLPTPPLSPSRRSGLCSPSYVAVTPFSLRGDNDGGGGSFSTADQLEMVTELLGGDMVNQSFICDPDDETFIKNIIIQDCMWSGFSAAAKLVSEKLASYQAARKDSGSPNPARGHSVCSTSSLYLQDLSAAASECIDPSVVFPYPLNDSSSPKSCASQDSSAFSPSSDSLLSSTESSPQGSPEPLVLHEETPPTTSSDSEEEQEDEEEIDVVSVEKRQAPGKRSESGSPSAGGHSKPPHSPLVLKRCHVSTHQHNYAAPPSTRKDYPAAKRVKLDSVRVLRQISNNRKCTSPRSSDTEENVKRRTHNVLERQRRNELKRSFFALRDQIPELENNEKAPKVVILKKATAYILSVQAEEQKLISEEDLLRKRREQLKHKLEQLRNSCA

Tests used:
[1] = biological target: HA-tagged FBW7ΔDF V375A/K377N (human) (UniProt Q969H0); experiment: proximity ligation; U2OS cells co-expressing LT, c-Myc, cyclin E or sT with FBW7ΔDF (WT) or V375A/K377N (mut), 48 h post transfection; Duolink in situ; puncta per cell and fluorescence intensity by microscopy
[2] = biological target: HA-tagged WT WD40 (FBW7ΔDF) (human) (UniProt Q969H0); experiment: as above

In the case of c-Myc (from UniProt P01106 1-454), the binding [1] is reported as “binds” and the binding [2] is reported as “binds”.
